According to PubChem BioAssay AID540256 (National Center for Advancing Translational Sciences (NCATS), 2011):
Out of some 300,000 compounds screened, about 3,700 (1.2%) were called active. The shares of active, inactive and inconclusive entries below differ from those in the screen. Calls follow the shape of the full dose curve; tested in HEK293 cells. Potencies of inconclusive entries are doubtful fits and often do not repeat.

Assay: qHTS for Inhibitors of binding or entry into cells for Lassa Virus; also: nearly all actives have a fitted effect of over 50% in size
Conditions: Lassa virus pseudotype entry inhibition, cell reporter; activity change, negative = inhibition: at 37.9 µM (top of the series) unless noted
% is scaled to controls: 0 for no effect and ±100 for the full control effect; potency is read from the fitted curve at half-maximal effect.

| SMILES | Potency | activity change, negative = inhibition |
| --- | --- | --- |
| COC(=O)[C@]1(C)C[C@H]1[C@H](NP(=O)(c1ccccc1)c1ccccc1)c1ccccc1 | inconclusive: 32.6 µM [inhibitor, partial curve, poor fit] |  |
| Nc1c(C(=O)N/N=C/c2cccnc2)oc2nc(-c3ccco3)cc(-c3ccco3)c12 | inconclusive: 3.16 µM [inhibitor, partial curve, poor fit] |  |
| CN(C)c1ccc(CNC(=O)c2ccc(NC(=O)N3CCCCc4ccccc43)cc2)cc1 |  | inactive: 7.69% [at 46.1 µM] |
| Cc1ccc(C(=O)Nc2cccc(Oc3ccccc3)c2)o1 | inconclusive: 35.5 µM [inhibitor, single point] |  |
| CCC1(C)Cc2nc3sc(C(=O)O)c(N)c3cc2CO1 (configuration not stated) |  | inactive: 11% |
| c1ccc(CN(CC2=NCCN2)c2ccccc2)cc1 | inconclusive: 2.59 µM [inhibitor, partial curve, poor fit] |  |
| CCN(c1nc(N)c(C(=O)N=C(N)N)nc1Cl)C(C)C | inconclusive: 2.91 µM [inhibitor, full curve, poor fit] |  |
| Cc1ccc(N(C(=O)c2cnccn2)C(C(=O)NC2CCCCC2)c2ccc(O)cc2)cc1 (configuration not stated) | inconclusive: 10 µM [inhibitor, partial curve] |  |
| O=C(NCc1cccnc1)c1ccc(COc2ccccc2Br)o1 | inconclusive: 23.1 µM [inhibitor, partial curve, poor fit] |  |
| CCOc1cc(/C=C2\N=C(C)OC2=O)cc(Br)c1OCC(=O)OC | inconclusive: 32.6 µM [inhibitor, single point] |  |
| Cc1cc(C)n2nc(/C(C#N)=C/c3ccccn3)c(C#N)c2n1 | active: 10 µM |  |
| Cc1ccc(NC(=O)c2c(NC(=O)Cc3ccccc3)sc3c2CCCC3)cc1 |  | inactive: 9.63% [at 46.1 µM] |
| COc1ccc(C(=O)NNC(=O)Cc2ccc(-c3ccccc3)cc2)cc1OC |  | inactive: -3.73% |
| O=C(NCC1CCCO1)c1sc(=S)n2c1[nH]c(=O)c1ccc(C(=O)N3CCCCC3)cc12 (configuration not stated) | inconclusive: 29.1 µM [inhibitor, single point] |  |
| CN(C)c1nc(Cl)nc(N(C#N)CCOc2ccccc2)n1 | inconclusive: 14.1 µM [inhibitor, partial curve, poor fit] |  |
| CCn1c2ccccc2c2cc(/C=N/NC(=O)c3cc(O)cc(O)c3)ccc21 | inconclusive: 0.891 µM [inhibitor, full curve, poor fit] |  |
| CC1Cc2ccccc2N1C(=O)CSc1nc2c(c(=O)n(C)c(=O)n2C)n1Cc1ccccc1 (configuration not stated) | inconclusive: 16.4 µM [inhibitor, single point] |  |
| CC(C)CCn1nnc2sc(-c3ccccc3)cc2c1=O | inconclusive: 8.91 µM [activator, partial curve, poor fit] |  |
| CC(=O)N/C(=C\c1ccccc1)C(=O)OCC(=O)N1CCCCCC1 | inconclusive: 1.26 µM [activator, single point] |  |
| CC1CCc2sc(C(=O)OCC(=O)NC(N)=O)cc2C1 (configuration not stated) | inconclusive: 35.5 µM [activator, single point] |  |
| O=C1c2cccc(NCCNCCO)c2C(=O)c2cccc(NCCNCCO)c21 | inconclusive: 12.6 µM [inhibitor, partial curve, poor fit] |  |
| COc1ccc(NC(C)(C)c2nnnn2-c2c(C)cccc2C)cc1 | inconclusive: 11.2 µM [inhibitor, partial curve, poor fit] |  |
| CC(C)(C)OC(=O)N1CCC[C@H]1c1nnc(SCc2c(F)cccc2Cl)o1 | inconclusive: 4.47 µM [inhibitor, full curve] |  |

| SMILES | Potency | activity change, negative = inhibition |
| --- | --- | --- |
| CCN(CC)S(=O)(=O)c1ccc2c(c1)c(=O)c(C(=O)NCc1cccs1)cn2C | inconclusive: 22.4 µM [inhibitor, partial curve, poor fit] |  |
| CC(=O)c1nnn(-c2ccc(C)cc2Cl)c1C | inconclusive: 2 µM [inhibitor, partial curve, poor fit] |  |
| CC(C)Oc1cccc(C2CC(=O)Nc3cc4c(cc32)OCO4)c1 (configuration not stated) | inconclusive: 7.94 µM [inhibitor, full curve, poor fit] |  |
| CC(C)[C@H](N)C(=O)NC[C@H]1CC[C@H](C(=O)N[C@@H](Cc2ccccc2)C(=O)O)CC1 | inconclusive: 35.5 µM [activator, partial curve, poor fit] |  |
| Cc1[nH]c2ccc3ncccc3c2c1C | inconclusive: 32.6 µM [activator, single point] |  |
| Nc1ccc(-c2nnc(-c3ccccc3)o2)cc1 | inconclusive: 35.5 µM [inhibitor, single point] |  |
| COc1ccccc1C1=NN(C(=S)Nc2ccccc2)C(c2ccco2)C1 (configuration not stated) | inconclusive: 11.2 µM [inhibitor, partial curve] |  |
| CCc1ccccc1NC(=O)C1CCN(c2cnccn2)CC1 | inconclusive: 5.01 µM [inhibitor, single point] |  |
| O=C(C1CCN(S(=O)(=O)c2cccc3nonc23)CC1)N1CCCCC1 |  | inactive: 19.2% |
| O=C(Cc1cccs1)N/N=C/c1ccc(OCc2ccccc2)cc1 | inconclusive: 11.2 µM [inhibitor, single point] |  |
| C/C(=C\C(=O)c1ccccc1)Nc1ccc(Cl)c(Br)c1 |  | inactive: -0.516% |
| CCC(C)Nc1nc2c(c(=O)[nH]c(=O)n2C)n1CCC(C)C (configuration not stated) |  | inactive: -8.09% |
| NC(=O)c1c(NC(=O)CN2CCOCC2)sc2c1CCC2 |  | inactive: -7.17% |
| O=C(N/C(=C/c1ccccc1)C(=O)N1CCCCC1)c1ccc(Br)o1 |  | inactive: -24.4% |
| COc1ccc(C(=O)Nc2ccccc2C(=O)NC(Cc2ccc(O)cc2)C(=O)NNC(=O)c2ccccc2)cc1 (configuration not stated) | inconclusive: 0.282 µM [activator, full curve, poor fit] |  |
| O=C(Cc1ccc(Cl)c(Cl)c1)Nc1cccc(S(=O)(=O)N2CCOCC2)c1 | inconclusive: 25.1 µM [inhibitor, single point] |  |
| CCOC(=O)c1c(C)c(C(=O)Nc2ccccc2)c(C)n1CC |  | inactive: 20.4% |
| CC(=O)c1cc2c(cc1NC(=O)C1CC1)OCO2 |  | inactive: -0.346% |
| CN1CCN(C=NC2=NN(c3cccc(C(F)(F)F)c3)CC2)CC1 | inconclusive: 22.4 µM [inhibitor, single point] |  |
| COc1ccc(CC(=O)Nc2ccccc2N2CCOCC2)cc1OC | inconclusive: 3.55 µM [activator, single point] |  |
| COc1ccccc1N1C(=O)C=C(Sc2nc(C)cc(C)n2)C1=O |  | inactive: 12.6% |
| CN=c1oc2ccc(Cl)cc2cc1C(N)=O | inconclusive: 35.5 µM [activator, partial curve, poor fit] |  |
| COc1ccc(N2CCN(C(=O)C(Cc3ccccc3)NC(=O)c3ccccc3)CC2)cc1 (configuration not stated) | inconclusive: 12.6 µM [inhibitor, partial curve, poor fit] |  |

| SMILES | Potency | activity change, negative = inhibition |
| --- | --- | --- |
| Nc1nc(-c2ccccn2)nc(N)c1Cc1c(F)cccc1Cl | inconclusive: 14.1 µM [inhibitor, single point] |  |
| Cc1ocnc1C(=O)Nc1ccc(Cl)cc1 | inconclusive: 17.8 µM [activator, partial curve, poor fit] |  |
| CCOc1ccc(C2c3c(oc4ccc(C)cc4c3=O)C(=O)N2CCCN(C)C)cc1 (configuration not stated) | inconclusive: 12.6 µM [activator, single point] |  |
| CSc1ccc(CCNC(=O)C(C)n2nc(C)c3sc4ccccc4c3c2=O)cc1 (configuration not stated) | inconclusive: 35.5 µM [inhibitor, single point] |  |
| O=C(NCCOC(=O)c1ccncc1)c1ccccc1 | inconclusive: 0.708 µM [activator, single point] |  |
| O=C(Nc1ccc(Cl)c(Cl)c1)Nc1ccc(N2CCCC2)c(S(=O)(=O)Nc2ccccc2Cl)c1 | active: 8.91 µM |  |
| Cc1nn(-c2ccccc2)c(Cl)c1C(=O)OCC(=O)NCCc1ccc(S(N)(=O)=O)cc1 |  | inactive: -2.77% |
| CCOC(=O)CC(NC(=O)C(CC)c1ccccc1)c1ccccc1Cl (configuration not stated) | inconclusive: 1.26 µM [activator, single point] |  |
| O=C(Nc1cccc(C(=O)N2CCN(c3cccc(Cl)c3)CC2)c1)c1nsc2ccccc12 | inconclusive: 35.5 µM [inhibitor, single point] |  |
| CC(=O)Nc1c(F)cc(Br)cc1F | inconclusive: 6.31 µM [inhibitor, single point] |  |
| COc1cc(OC)c(NC(=O)c2nn(-c3ccc(C)cc3)c(=O)c3c2c2ccccc2n3C)cc1Cl |  | inactive: 8.11% [at 46.1 µM] |
| COc1ccc(CNS(=O)(=O)NCc2ccc(C)cc2)cc1 |  | inactive: 6.91% [at 46.1 µM] |
| COc1ccc(CN2CCN(CCCCOc3ccc(Cl)cc3)CC2)c(OC)c1OC |  | inactive: -12.3% [at 46.1 µM] |
| Cc1ccc(S(=O)(=O)N(CC2CO2)c2ccccc2[N+](=O)[O-])cc1 (configuration not stated) |  | inactive: -2.62% [at 46.1 µM] |
| N#Cc1c2n(c3c(=O)n(Cc4ccc(Cl)cc4)cnc13)CCCC2 |  | inactive: 1.7% |
| O=[N+]([O-])c1ccc(CN2CC(N3CCC(c4ccccc4)CC3)CS2(=O)=O)cc1 (configuration not stated) | inconclusive: 0.223 µM [inhibitor, full curve, poor fit] |  |
| CN1CCN(Cc2cc(=O)oc3cc4c(cc23)CCC4)CC1 |  | inactive: 0.0046% |
| CCN(c1ccccc1)S(=O)(=O)c1ccc(Cl)c(C(=O)NC2CCN(Cc3ccccc3)CC2)c1 | inconclusive: 35.5 µM [inhibitor, single point] |  |
| CC(C)CCN1CCN(CC(c2ccccc2)c2ccccc2)CC1CCO (configuration not stated) | inconclusive: 11.2 µM [inhibitor, partial curve, poor fit] |  |
| Cc1ccc(S(=O)(=O)N2CCOCC2)cc1NC(=O)COC(=O)CNC(=O)c1ccc(Oc2ccccc2)cc1 |  | inactive: 15.2% |
| COc1ccc(N2CCN(S(=O)(=O)c3ccc(OC)cc3)CC2)cc1 | inconclusive: 13 µM [inhibitor, partial curve, poor fit] |  |

A section of the results above:

| SMILES | Potency | activity change, negative = inhibition |
| --- | --- | --- |
| O=C(Nc1ccc(Cl)c(Cl)c1)Nc1ccc(N2CCCC2)c(S(=O)(=O)Nc2ccccc2Cl)c1 | active: 8.91 µM |  |
| Cc1nn(-c2ccccc2)c(Cl)c1C(=O)OCC(=O)NCCc1ccc(S(N)(=O)=O)cc1 |  | inactive: -2.77% |
| CCOC(=O)CC(NC(=O)C(CC)c1ccccc1)c1ccccc1Cl (configuration not stated) | inconclusive: 1.26 µM [activator, single point] |  |
| O=C(Nc1cccc(C(=O)N2CCN(c3cccc(Cl)c3)CC2)c1)c1nsc2ccccc12 | inconclusive: 35.5 µM [inhibitor, single point] |  |
| CC(=O)Nc1c(F)cc(Br)cc1F | inconclusive: 6.31 µM [inhibitor, single point] |  |
